Test results from PubChem BioAssay AID652054 (National Center for Advancing Translational Sciences (NCATS), 2013).
The whole screen tested about 360,000 compounds, of which about 9,100 (2.5%) were called active. The inconclusive results got no clear call from the source; some entries with a clear call stand among them for comparison. Cut-off read from the data, not from the text of the source: active = max response below about -50%; inconclusive = no clear call, values can overlap the other calls; inactive = above that.

The chains behind the UniProt entries cited, without tags or fusion partners.
UniProt P35462, whole entry, looked up: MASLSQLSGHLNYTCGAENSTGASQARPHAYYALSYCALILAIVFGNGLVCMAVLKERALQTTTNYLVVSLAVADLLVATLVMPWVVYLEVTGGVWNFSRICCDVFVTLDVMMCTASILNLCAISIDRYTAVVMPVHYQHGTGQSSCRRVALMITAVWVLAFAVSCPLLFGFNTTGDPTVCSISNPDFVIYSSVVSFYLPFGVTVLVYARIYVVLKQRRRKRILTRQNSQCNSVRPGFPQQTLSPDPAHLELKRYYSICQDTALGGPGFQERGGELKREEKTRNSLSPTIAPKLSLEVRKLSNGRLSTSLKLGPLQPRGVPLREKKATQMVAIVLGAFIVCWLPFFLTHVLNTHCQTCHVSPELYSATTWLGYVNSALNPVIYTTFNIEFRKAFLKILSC

Target: D(3) dopamine receptor (Homo sapiens) (UniProt P35462)
Test: qHTS of D3 Dopamine Receptor Antagonist: qHTS
Conditions: D3R cells, DiscoveRx beta-arrestin luminescence, antagonist mode; active compounds read low
Method in brief: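 Cells expressing the human receptor were seeded at 1500 cells/well, incubated overnight at 37 degrees C in 5% CO2, then exposed to library compounds with dopamine controls for 90 minutes at 37 degrees C before luminescent detection.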
% is set by controls: 0 for no effect and ±100 for the full control effect.

Max response, negative = inhibition, active:
Cc1cccc([C@@H]2[C@@H]3C(=O)N(Cc4ccccc4)C(=O)[C@@H]3[C@]3(C)C(=O)N(c4cccc(Cl)c4)C(=O)N23)c1 -59.6%
CCCOc1ccc(NC(=O)CNC(=O)c2cc(OC)cc(OC)c2)cc1OCCC -57.7%
CCN(C(=O)COc1ccc(C(C)=O)cc1)c1cccc2ccccc12 -72.1%
CCOC(=O)c1c(C)[nH]c(C)c1S(=O)(=O)NCCN1CCN(c2ccccc2F)CC1 -57.7%
CC(=O)Nc1nc(NC(=O)/C=C/c2ccccc2)n(-c2ccccc2)n1 -72%
CCc1nnc(NS(=O)(=O)c2ccc(NC(=O)/C=C/C(=O)O)cc2)s1 -62.4%
C/C(=N/NC(=O)c1ccc(C(C)(C)C)cc1)c1ccccn1 -115%
O=c1cc(-c2c(F)c(F)c(F)c(F)c2F)oc2ccccc12 -67.4%
COc1ccccc1N=Nc1ccc(O)c2ncccc12 -89.6%
c1ccc(-c2ccccc2OCCCCN2CCCCC2)cc1 -71.4%
CN(C)c1cc[n+](CC(=O)Nc2cc(C(F)(F)F)ccc2Cl)cc1 -58.7%

Sorted by SMILES length (rising): part of the list above
Max response, negative = inhibition, active:
C/C(=N/NC(=O)c1ccc(C(C)(C)C)cc1)c1ccccn1 -115%
CCN(C(=O)COc1ccc(C(C)=O)cc1)c1cccc2ccccc12 -72.1%
CCOC(=O)c1c(C)[nH]c(C)c1S(=O)(=O)NCCN1CCN(c2ccccc2F)CC1 -57.7%

Next part:

Max response, negative = inhibition, inactive:
O=C(Cc1ccc(Cl)cc1)N/N=C/c1ccc(O)c(O)c1 -1.26%
O=c1c2c3c(sc2n(CCN2CCOCC2)c(=O)n1Cc1ccco1)CCCCC3 4.47%
COc1cc2c(cc1OC)C(c1cccc([N+](=O)[O-])c1)NC(=O)C2 (stereo not given) 3.91%
COc1cc(OC)cc(OC(=O)c2ccc3c(=O)n4c(nc3c2)CCC4)c1 4.64%
COc1cc(C(=O)NCCNc2nc3cc(C)ccc3cc2C#N)cc(OC)c1OC 0.351%
COc1cc2c(cc1OC)C(C)N(C(=O)c1cc3ccccc3o1)CC2 (stereo not given) 28.9%
CCC1C(=O)NCCN1C(=O)CCc1nnc(CCc2ccc(OC)cc2)o1 (stereo not given) -1.19%
O=C(c1ccccc1C(=O)N1CCN(c2ccccc2)CC1)N1CCN(c2ccccc2)CC1 -6.66%
Cc1cccc(C(=O)N2CCC[C@H]2C(=O)N2CCC[C@H]2C(=O)NCc2ccncc2)c1 2.64%
O=C(N/C(=C\c1ccccc1)C(=O)N1CCOCC1)c1cccc(Br)c1 -13.5%
COc1cc(/C=C2/C(=N)N3C(c4ccccc4)=CSC3=NC2=O)ccc1OCC(=O)O 0.404%
O=C(O)CN1C(=O)NC2NC(=O)NC21 (stereo not given) 16.1%
N/C(=N\OC(=O)c1ccc(=O)n(Cc2ccc(Cl)cc2)c1)c1ccccn1 8.5%
CSc1nnc(C)c(/C=C/Nc2ccc(F)cc2F)n1 2.55%
O=C(Nc1ccc(Cl)c(C(F)(F)F)c1)c1ccncc1 -23.7%

Max response, negative = inhibition, inconclusive:
Cc1cc(C)c2sc(N(CCCN(C)C)C(=O)c3ccc(S(=O)(=O)N4CCCc5ccccc54)cc3)nc2c1 -42.8%
Cc1ccc(S(=O)(=O)N/N=C\c2ccc(Cl)c([N+](=O)[O-])c2)cc1 -35.5%
COC(=O)CN1C(=O)[C@H]2[C@@H](c3ccc(C)o3)N3C(=O)CN(Cc4ccccn4)C(=O)[C@@]3(C)[C@H]2C1=O -42.8%
O=C(Cn1nc(Cc2cccnc2)c2ccccc2c1=O)NCC1COc2ccccc2O1 (stereo not given) -35.9%
CN(C)c1ccc(/C=N/N(CCO)C2=NS(=O)(=O)c3ccccc32)cc1 -32.9%
COc1ccc(C)cc1S(=O)(=O)Nc1ccccc1 -31.7%
COc1ccc(Cc2nnc(N=Nc3c(O)[nH]c4ccc(Br)cc34)[nH]c2=O)cc1 -47.1%
O=c1cc(-c2ccc(Cl)cc2)[nH][nH]1 -31.9%
COc1cc(NS(=O)(=O)c2ccc3[nH]c(=O)oc3c2)cc(OC)c1 -39.4%
CC(/C=C1\SC(=O)N(CC(=O)Nc2cccc(O)c2)C1=O)=C\c1ccccc1 -43.1%
COc1cc(NC(=S)NC(=O)c2cc(C)cc(C)c2)ccc1NC(=O)c1cccs1 -43%
CN1C=CC=C/C1=C1\SC(=S)N(Cc2ccccc2)C1=O -43.3%
CCOC(=O)c1[nH]c(C)c(C(=O)N(CC)CC)c1C -35%
Cc1ccccc1Nc1nc(N)[nH]c(=O)c1N=O -40%
C/C(CC(=O)Nc1ccc(Cl)cc1Cl)=N\NC(=O)c1ccco1 -46.9%
CN(CCc1ccccn1)C(=O)c1ccc(OC(F)(F)F)cc1 -39.1%
Cc1ccc(NC(=O)/C(=C/c2ccco2)c2ccccc2)c(C)c1 -43.7%
CCO[C@@H]1OC(C(=O)N2CCN(C)CC2)=C[C@H](c2coc3ccccc3c2=O)[C@H]1CCCO -49.4%
Oc1ccccc1Cn1c(-c2ccccc2O)nc2ccccc21 -30.6%
O=C(CNC(=O)c1cccc(S(=O)(=O)N2CCc3ccccc32)c1)Nc1ccccc1Br -39.9%
CC1=C(C(=O)N(C(C)C)C(C)C)CC(CC(=O)NCCCCc2ccccc2)C(=O)N1Cc1ccccc1 (stereo not given) -44.2%
COc1ccc(CCNC(=O)C2CC(c3ccccc3F)=NO2)cc1 (stereo not given) -32.9%
O=C(CNC(=O)c1ccc(Br)o1)NCCc1ccc(F)cc1 -47.6%
COc1ccc(OCCOCCN2CCOCC2)cc1 -39.5%
O=C(CNS(=O)(=O)c1ccccc1F)Nc1ccc(N2CCOCC2)cc1 -34.1%
CCCCCn1c(=O)[nH]c2cc(C(=O)NCCCN3CCC(C)CC3)ccc2c1=O -43.7%
NC(N)=N/N=C/c1ccccc1 -32.4%
CCN1C(=O)C2(C(C#N)=C(N)Oc3cc(C)oc(=O)c32)c2ccccc21 (stereo not given) -45.1%
CC1CCN(CCCn2c(SCC(=O)Nc3ccccc3Cl)nc3ccccc3c2=O)CC1 -43.5%
